## Primary screen of a compound library

Sequences of proteins named here, by UniProt entry; tags and fusion partners are left off.
UniProt E9BF75, entry or part of it: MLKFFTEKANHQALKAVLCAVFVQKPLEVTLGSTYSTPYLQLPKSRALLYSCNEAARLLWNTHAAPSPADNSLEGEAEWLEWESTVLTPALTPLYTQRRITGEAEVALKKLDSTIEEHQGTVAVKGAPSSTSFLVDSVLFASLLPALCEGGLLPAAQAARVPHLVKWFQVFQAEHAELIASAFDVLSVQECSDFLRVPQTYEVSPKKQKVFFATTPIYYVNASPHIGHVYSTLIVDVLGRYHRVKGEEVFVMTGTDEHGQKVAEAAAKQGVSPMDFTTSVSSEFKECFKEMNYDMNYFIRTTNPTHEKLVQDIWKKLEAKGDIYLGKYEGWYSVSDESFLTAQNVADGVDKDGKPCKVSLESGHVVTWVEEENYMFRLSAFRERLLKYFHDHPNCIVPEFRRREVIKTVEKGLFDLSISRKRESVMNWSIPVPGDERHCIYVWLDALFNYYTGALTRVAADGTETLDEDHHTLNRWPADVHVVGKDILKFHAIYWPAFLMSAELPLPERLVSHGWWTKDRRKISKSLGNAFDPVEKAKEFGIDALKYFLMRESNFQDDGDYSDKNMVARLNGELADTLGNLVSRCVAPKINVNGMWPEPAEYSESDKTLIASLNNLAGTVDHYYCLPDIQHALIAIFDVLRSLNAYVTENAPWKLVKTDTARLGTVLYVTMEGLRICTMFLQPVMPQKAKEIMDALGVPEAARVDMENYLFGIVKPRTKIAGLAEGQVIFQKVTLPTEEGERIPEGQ

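Primary screen of methionyl-tRNA synthetase; the read-out is not stated. Target: Methionyl-tRNA synthetase (putative), Leishmania donovani (UniProt E9BF75). The test concentration is not given. Values are per cent inhibition. About 68,000 compounds were tested under these conditions; 0.035% (about 24) showed 50% or more at least once.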

Results are percentages, as filed.
The controls that fix the scale are not given in the record; negative values are as filed.
Compounds were drawn at random from those tested, without regard to their results.

SMILES | Inhibition
CCOc1ccc2[nH]c(=O)c(CN3CCCCC3C)cc2c1 (centres unmarked) | 10.63
CCN(CCO)C[C@@H]1CN(c2cccc(C(F)(F)F)n2)C[C@@H]1CO | 10.95
CNC(=O)C1(c2cnccn2)CCCN1C(=O)c1ccccc1 (centres unmarked) | 10.94
Cc1ccc(CN(C)C(=O)CN2CCCC2Cn2cncn2)cc1 (centres unmarked) | 29.19
CCN(CC(=O)NC(C)C)S(=O)(=O)N1CCC(C)C1 (centres unmarked) | 7.063
NC(=O)C(NC1CCN(CC2CCCCC2)CC1)c1ccc(F)cc1 (centres unmarked) | 20.85
c1cn2c(n1)CNCC(COCC1CC1)C2 (centres unmarked) | 7.609
CN(C)Cc1cc(=O)n2c(n1)CN(C(=O)Cc1ccsc1)CCC2 | 5.512
Cc1ncc2c(n1)CN(Cc1nc(-c3ccsc3)no1)CC2 | 16.57
C[C@@H]1CN2C[C@H](O)CC2CN1Cc1ccncc1 (some centres unmarked) | 14.7
CO[C@H]1CN(C(=O)c2ccnnc2)[C@@H]2COC[C@H]12 | 4.575
O=C(c1cnn2cc(CCO)cnc12)N1CCOC(C(F)(F)F)C1 (centres unmarked) | -4.178
O=C(CC1CCCC1)N1CCC2(CC1)[C@H](O)C[C@@H]2O | 7.463
CCCn1c(C)c(CC(=O)N[C@H](C)C(=O)OC)c2c1CC(C)(C)CC2=O | 13.35
COc1ccc(C(=O)N2CCC(Nc3cccnn3)CC2)cn1 | -1.105
CS(=O)(=O)NC[C@]12COC[C@H]1CN(C(=O)c1ccoc1)C2 | 19.61
Nc1nc(C2CCN(C(=O)c3cncs3)CC2)cs1 | 20.21
Cc1cnn(CC(C)NCC(=O)NCCc2cccs2)c1 (centres unmarked) | 14.54
Cc1noc([C@@H]2C[C@@H]3CCN(CC4CCOCC4)C[C@H]3O2)n1 | 12.33
Cc1nc(CN2C[C@@H]3CN(C(=O)c4cnccn4)C[C@@H]3C2)cs1 | 17.5
Cc1ccc(S(=O)(=O)N2CCOCC2C(N)=O)c(F)c1 (centres unmarked) | 12.15
O=C(NCCC1CCN(CC(F)(F)F)CC1)C1CCOC1 (centres unmarked) | 9.399
O=C(NCC1Cn2nnc(-c3ccncc3)c2CO1)c1ccc[nH]1 (centres unmarked) | 9.15
Cc1nnc([C@@H]2CC[C@@H]3[C@@H](CCN3C3CCC3)O2)o1 | 8.029
CC(C)c1nc2c(n1C)CCN(CCCc1nc3ccccc3o1)C2 | 6.028
COCCN1CCO[C@@H]2CN(C(=O)COc3ccc(C)cc3)C[C@@H]2C1 | 9.783
CC(=O)N1CCC(Nc2cc(F)ccc2OCC2CCCO2)CC1 (centres unmarked) | 9.659
CC(C)c1noc(CCC(=O)N2CCN(C)CC2c2ccccc2)n1 (centres unmarked) | 11.15
O=C(c1ccc2c(c1)CCC2)N1CCCCC1C1OCCO1 (centres unmarked) | 14.25
CC(C)(C)OC(=O)N1CCCN(c2nnc(C3CC3)s2)CC1 | 4.57
Cn1ncc2c1CN(C(=O)Cc1ccccn1)CC2COCC1CC1 (centres unmarked) | 15.93
Cc1cccc(-n2nc(CC(C)C)nc2CCC(=O)N(C)C)c1 | 13.19
CNCCCNc1nc(C2CCCC2)nc2c1cnn2C | 7.801
Cc1ccccc1CN1C[C@@H]2COC[C@]2(CNC(=O)C2CCC2)C1 | 14.66
Cn1ccc(NC(=O)NC2CCCN(c3ccccc3Cl)C2=O)n1 (centres unmarked) | 13.35
Cc1ccc(C(N)c2cccs2)cc1 (centres unmarked) | 15.25
N#Cc1cccc(C(=O)N2CCCC(O)(CO)CC2)c1 (centres unmarked) | -0.5115
CN1CCC(N(CCc2ccccc2)C(=O)c2ccoc2)CC1 | 8.527
CC(C)=CCN1C[C@H]2CC[C@@H]1CN(Cc1coc(C)n1)C2 | 18.44
CCc1ccc(CN2C[C@H](OC)[C@H]3COC[C@H]32)o1 | 11.48
CCNC(=O)N1CCC2(CC1)CCn1c(-c3cccc(OC)c3)cnc12 | 14.49
CCCn1cc(-c2cc(-c3ccoc3)c(C#N)c(N)n2)c(C)n1 | 11.76
COc1cc(NCc2c(C)noc2C)c(OC)cc1Cl | 1.809
CC(=O)N1CCC(C(=O)N(C)[C@@H]2CCC[C@@H](N3CCCC3)[C@@H]2O)CC1 | 14.04
Cc1cnn(CC2CCN(c3cc(C(C)C)nc4ccnn34)CC2)c1 | 16.48
CC(C)(C)c1noc(CN2CCCCC2Cn2cncn2)n1 (centres unmarked) | 9.836
Cc1nc2[nH]cnc(NCCN3CCOCC3)c-2n1 | 16.13
Cn1cc(NC(=O)NCc2ccsc2)ccc1=O | 13.12
c1cc(C2CCN(Cc3ccc4c(c3)OCO4)CC2)ccn1 | 18.02
COc1cc(N2CCCC3(CCN(c4cccnc4)C3=O)C2)ncn1 (centres unmarked) | 8.403
COc1ncnc(N(C)C)c1NC(=O)Cc1cc(F)ccc1F | 6.015
c1cc(CN2CCCC(c3nnc(-c4cnccn4)o3)C2)ccn1 (centres unmarked) | 16.83
Cc1cccc(C(C(=O)NCCCc2nnc3ccccn23)N(C)C)c1 (centres unmarked) | 5.484
CC(=O)Nc1ccc(Cl)c(C(=O)N(C)C(C)c2ccncn2)c1 (centres unmarked) | 3.846
COc1cc(C(C)NCc2ncccc2C)ccc1SC(F)F (centres unmarked) | -15.72

Repeated from the top, 5 entries:

* CCOc1ccc2[nH]c(=O)c(CN3CCCCC3C)cc2c1 (centres unmarked) : 10.63%
* CCN(CCO)C[C@@H]1CN(c2cccc(C(F)(F)F)n2)C[C@@H]1CO : 10.95%
* CNC(=O)C1(c2cnccn2)CCCN1C(=O)c1ccccc1 (centres unmarked) : 10.94%
* Cc1ccc(CN(C)C(=O)CN2CCCC2Cn2cncn2)cc1 (centres unmarked) : 29.19%
* CCN(CC(=O)NC(C)C)S(=O)(=O)N1CCC(C)C1 (centres unmarked) : 7.063%

Source: ChEMBL document CHEMBL3988442, “University of Dundee, Small-Polar-MMV Screening Library” (2021).